Measurements reported in patent US20240115722A1.
Substitutions are numbered along the chain they refer to. These are yes or no findings as the source states them, for the method shown. Some binding calls cover weakened binding; strength is not graded here.

Chains of the proteins cited; added tags and fusions are not shown. Lines headed by an entry give the natural chain unless they say otherwise; changes in a name come on top.
UniProt P54756: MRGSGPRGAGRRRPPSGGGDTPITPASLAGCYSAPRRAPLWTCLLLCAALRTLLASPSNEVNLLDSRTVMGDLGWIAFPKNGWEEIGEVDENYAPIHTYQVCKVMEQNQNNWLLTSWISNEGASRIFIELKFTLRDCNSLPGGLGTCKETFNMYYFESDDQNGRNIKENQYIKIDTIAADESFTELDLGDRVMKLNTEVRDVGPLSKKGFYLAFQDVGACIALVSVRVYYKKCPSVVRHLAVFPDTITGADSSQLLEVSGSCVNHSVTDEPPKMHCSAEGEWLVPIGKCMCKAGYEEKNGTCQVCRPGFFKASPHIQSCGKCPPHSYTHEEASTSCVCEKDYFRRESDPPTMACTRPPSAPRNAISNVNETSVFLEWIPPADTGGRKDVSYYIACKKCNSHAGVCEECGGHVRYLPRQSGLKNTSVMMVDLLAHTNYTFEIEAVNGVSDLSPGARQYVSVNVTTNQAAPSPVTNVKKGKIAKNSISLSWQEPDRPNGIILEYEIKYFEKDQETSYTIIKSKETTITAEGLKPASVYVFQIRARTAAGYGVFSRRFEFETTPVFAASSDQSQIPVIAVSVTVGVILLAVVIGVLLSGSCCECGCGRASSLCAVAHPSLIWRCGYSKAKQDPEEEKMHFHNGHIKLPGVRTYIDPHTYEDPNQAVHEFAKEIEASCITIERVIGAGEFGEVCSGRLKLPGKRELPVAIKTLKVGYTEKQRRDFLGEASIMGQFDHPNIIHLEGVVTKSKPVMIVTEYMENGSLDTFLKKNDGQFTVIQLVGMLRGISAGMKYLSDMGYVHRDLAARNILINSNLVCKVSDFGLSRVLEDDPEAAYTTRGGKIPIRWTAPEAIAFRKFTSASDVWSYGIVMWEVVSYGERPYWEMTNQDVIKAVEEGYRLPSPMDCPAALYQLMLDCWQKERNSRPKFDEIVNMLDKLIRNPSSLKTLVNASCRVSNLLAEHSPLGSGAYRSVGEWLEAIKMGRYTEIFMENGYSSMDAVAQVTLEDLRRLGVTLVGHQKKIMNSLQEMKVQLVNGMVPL

B1: chimeric VH0/VK0 antibody (murine 11C12 variable regions, human IgG1/kappa constant regions) (antibody, V domains shown)
VH: EVTLKESGGGLVQPGGSRKLSCAASGFTFSTFGIHWVRQAPEKGLEWVAYISGASTTIYYADTVKGRFTISRDNPKNTLFLQMTSLRSEDTAMYYCARYGTSFPYGLDYWGQGTSVTVSS
VL: DIVMTQSPGSLAVSLGQRATISCKASQSVDYDGDSYMNWYQQKPGQPPKLLIYGASNLESGIPARFSGSGSGTDFTLNIHPVEEEDAASYYCQQSNEDPFTFGSGTKLEIKR
B2: VH4/VK4 humanized 11C12 antibody (antibody, human IgG1, kappa, V domains shown)
VH: B1 VH with T3Q, K5V, R18L, E42G, P75S, F80Y, T84N, S88A, M93V, S115L
VL: DIVMTQSPDSLAVSLGERATINCKSSQSVDYDGDSYMNWYQQKPGKAPKLLIYGASNLESGIPDRFSGSGSGTDFTLTISRLEPEDAASYYCQQSNEDPFTFGQGTKLEIKR
B3: VH1/VK0 (antibody, human IgG1, kappa, V domains shown)
VH: B1 VH with K5V, E42G, P75S, F80Y, T84N
VL: B1 VL
B4: VH4/VK1 humanized 11C12 antibody (antibody, human IgG1, kappa, V domains shown)
VH: B1 VH with T3Q, K5V, R18L, E42G, P75S, F80Y, T84N, S88A, M93V, S115L
VL: B2 VL with D9G, S25A, P84E
B5: VH4/VK5 humanized 11C12 antibody (antibody, human IgG1, kappa, V domains shown)
VH: B1 VH with T3Q, K5V, R18L, E42G, P75S, F80Y, T84N, S88A, M93V, S115L
VL: B2 VL with S89V
B6: VH0/VK1 (antibody, human IgG1, kappa, V domains shown)
VH: B1 VH
VL: B2 VL with D9G, S25A, P84E
B7: VH6/VK1 humanized 11C12 antibody (antibody, human IgG1, kappa, V domains shown)
VH: EVQLVESGGGLVQPGGSLKLSCAASGFTFSTFGIHWVRQAPGKGLEWVASISGASTTIYYADSVKGRFTISRDNSKNTLYLQMNSLRAEDTAVYYCARYGTSFPYGLDYWGQGTLVTVSS
VL: B2 VL with D9G, S25A, P84E
B8: VH5/VK1 humanized 11C12 antibody (antibody, human IgG1, kappa, V domains shown)
VH: B7 VH with S50Y
VL: B2 VL with D9G, S25A, P84E
B9: VH4/VK2 humanized 11C12 antibody (antibody, human IgG1, kappa, V domains shown)
VH: B7 VH with S50Y, S63T
VL: B2 VL with S25A
B10: VH5/VK2 humanized 11C12 antibody (antibody, human IgG1, kappa, V domains shown)
VH: B7 VH with S50Y
VL: B2 VL with S25A
B11: VH6/VK5 humanized 11C12 antibody (antibody, human IgG1, kappa, V domains shown)
VH: B7 VH
VL: B2 VL with S89V
B12: VH5/VK5 humanized 11C12 antibody (antibody, human IgG1, kappa, V domains shown)
VH: B7 VH with S50Y
VL: B2 VL with S89V
B13: VH6/VK4 humanized 11C12 antibody (antibody, human IgG1, kappa, V domains shown)
VH: B7 VH
VL: B2 VL
B14: VH5/VK4 humanized 11C12 antibody (antibody, human IgG1, kappa, V domains shown)
VH: B7 VH with S50Y
VL: B2 VL
B15: VH6/VK3 humanized 11C12 antibody (antibody, human IgG1, kappa, V domains shown)
VH: B7 VH
VL: B2 VL with S25A, S89V
B16: VH6/VK2 humanized 11C12 antibody (antibody, human IgG1, kappa, V domains shown)
VH: B7 VH
VL: B2 VL with S25A

target: recombinant human EphA5 (rhEphA5) antigen (human) (UniProt P54756); test: SPR single-cycle kinetics (Biacore T200), antibody captured on anti-human IgG CM5 chip, rising concentrations of rhEphA5 injected, raw and 1:1-fitted curves

binding	Binder
binds	B1
binds	B2
binds	B3
binds	B4
binds	B5
binds	B6
binds	B7
binds	B8
binds	B9
binds	B10
binds	B11
binds	B12
binds	B13
binds	B14
binds	B15
binds	B16

target: recombinant human EphA5 (rhEphA5) antigen (human) (UniProt P54756); test: SPR (Biacore T200) single-cycle kinetics, supernatant IgG captured on anti-human IgG chip, rhEphA5 as analyte

binding	Binder
binds	B2
binds	B4
binds	B5
binds	B7
binds	B8
binds	B9
binds	B10
binds	B11
binds	B12
binds	B13
binds	B14
binds	B15
binds	B16

target: recombinant human EphA5 (rhEphA5) antigen (human) (UniProt P54756); test: SPR multi-cycle kinetics (Biacore T200), IgG captured on anti-human IgG chip, rising concentrations of human EphA5 injected, raw and 1:1-fitted curves

binding	Binder
binds	B1
binds	B2

target: recombinant human EphA5 (rhEphA5) antigen (human) (UniProt P54756); test: SPR (Biacore T200) multi-cycle kinetics, purified IgG captured on anti-human IgG chip, recombinant EphA5 as analyte

binding	Binder
binds	B2
binds	B10
binds	B14

target: recombinant human EphA5 (rhEphA5) antigen (human) (UniProt P54756); test: SPR multi-cycle kinetics (Biacore T200), IgG captured on anti-human IgG chip, rising concentrations of human EphA5 injected, raw and 1:1-fitted curves [continued]

binding	Binder
binds	B10
binds	B14
